At least one compound was matched to its structure with a doubt left. Some compounds share one wording; it may come from a single statement. Some of these results come from one statement about several compounds together.
Legend:
AGE-BSA = biological target: T1, AGE-BSA (Bos taurus, UniProt P02769); assay: In-vitro AGE breaking activity by ELISA (16 weeks AGE-BSA incubated with test compound); assay type: biochemical, bovine; conditions: comparison in words based on Table 2
T1 construct: Bovine serum albumin (fraction V) (BSA); from tissue

Amino acid sequences for entries named in this document (tags omitted). Residues count along the entry.
UniProt P02769, 25-607: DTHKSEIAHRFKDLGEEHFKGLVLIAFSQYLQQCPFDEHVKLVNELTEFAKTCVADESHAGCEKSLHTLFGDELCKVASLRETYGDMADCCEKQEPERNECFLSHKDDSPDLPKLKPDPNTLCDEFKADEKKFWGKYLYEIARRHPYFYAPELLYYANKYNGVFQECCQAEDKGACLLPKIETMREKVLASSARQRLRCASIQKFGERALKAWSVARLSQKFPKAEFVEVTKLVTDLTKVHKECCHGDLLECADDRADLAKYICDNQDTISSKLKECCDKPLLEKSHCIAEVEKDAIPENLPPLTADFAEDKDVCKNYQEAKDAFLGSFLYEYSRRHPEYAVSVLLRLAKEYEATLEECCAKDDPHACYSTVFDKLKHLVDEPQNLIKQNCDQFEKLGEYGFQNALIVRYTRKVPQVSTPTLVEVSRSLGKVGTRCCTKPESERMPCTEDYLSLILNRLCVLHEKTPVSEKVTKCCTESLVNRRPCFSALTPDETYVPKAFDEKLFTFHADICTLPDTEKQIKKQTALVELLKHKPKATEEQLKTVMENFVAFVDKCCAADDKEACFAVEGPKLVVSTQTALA

[1] = Free radical scavenging activity on ABTS radical cation (absorbance at 730nm); assay type: biochemical
Protocol: This method measures the relative ability of free radical scavenging substances to scavenge the ABTS ^.+ i.e. 2,2-Azino-bis-(3-ethyl benzo thiazoline-6-sulfonate) radical cation as compared to a standard amount of standard or free radical scavengers antioxidants. Incubation of ABTS with Peroxidase (metmyoglobin) and hydrogen peroxide results in the production of radical cation ABTS^.+ . This species is blue- green in colour and can be detected at 730nm. Antioxidants or free radical scavengers in the added sample that causes suppression of the color to a degree that is proportional to their concentration.
• A. Phosphate Citrate Buffer (pH 5.0): 48.5ml of 0.1M citric acid with sufficient 0.2M disodium hydrogen phosphate to produce 100 ml. • B. Phosphate Buffer Saline (PBS): Dissolve 40.0g of NaCl, 1.0g of KCI, 1.0g of KH2PO4 and 3.05g of Na2HPO4 in 1 litre milli-Q water. Dilute 200ml of above solution to 1 litre with milli-Q water (pH 7.4-7.6). • C. 3µM stock solution of Peroxidase was prepared in phosphate buffer saline pH 7.4(PBS). • D. 1.08 mM stock solution of Hydrogen peroxide was prepared in phosphate buffer saline pH 7.4 (PBS).
1 tablet (10mg) was dissolved in phosphate citrate buffer (pH 5.0).
5.0ml of ABTS stock solution was diluted with PBS to 20 ml.
320 µg of the enzyme was dissolved in 2.5 ml of PBS.
12µl of Hydrogen Peroxide (30%w/v) was diluted to 100ml with PBS.
0.1mM of stock solution of the drug was prepared which was serially diluted in PBS to get solutions of different concentrations.
To 18ml of ABTS stock solution, 100µl of Horseradish Peroxidase stock solution was added.
As soon as 1.5 ml of hydrogen peroxide solution was added to the above solution, blue-green colour of the ABTS radicals appeared. This solution was incubated at 30°C for 30 min.
980µl of ABTS radical stock solution was added to an eppendorf tube. To it was added 100µl of various PBS solution.
980µl of ABTS radical stock solutions were added to different eppendorf tubes. To it were added 100µl of various concentrations of drug solution.
The absorbance of control and test samples was recorded immediately at 730nm taking PBS as blank.
Calculation: The percent antioxidant activity was calculated according to the formula: % Antioxidant activity = [O.D of test sample/O.D of control*100]-100.

| Compound | AGE breaking activity compared to PTB (AGE-BSA) | potency (AGE breaking activity compared to PTB) (AGE-BSA) | also measured |
| --- | --- | --- | --- |
| CS(=O)(=O)NNC(=O)c1cc(Br)c[n+](CC(=O)c2cccs2)c1 [Compound 53, 1-(2-thien-2'-yl-2-oxoethyl)-3-(methanesulfonyl hydrazinocarbonyl)-5-bromo pyridinium bromide] | superior | – | – |
| Cc1ccc(C(=O)NNS(C)(=O)=O)c[n+]1CC(=O)c1cccs1 [Compound 57, 1-(2-thien-2'-yl-2-oxoethyl)-3-(methanesulfonyl hydrazinocarbonyl) -6-methyl pyridinium bromide] | superior | significantly much higher | – |
| NC(=O)c1cc(C(=O)NNC(=O)c2ccc[n+](CC(=O)c3cccs3)c2)c[n+](CC(=O)c2cccs2)c1 [Compound 60, 1-[1-(2-thien-2'-yl-2-oxoethyl)-5-aminocarbonyl-3-carbonylpyridinium]-2-[1-(2-Thien-2'-yl-2-oxoethyl)-3-carbonylpyridinium] hydrazine dichloride] | superior | significantly much higher | Relative Free Radical Scavenging Activity(%) on ABTS ([1]; 11.5µM): 44.1%; Relative Free Radical Scavenging Activity(%) on ABTS ([1]; 23.0µM): 59.8%; Relative Free Radical Scavenging Activity(%) on ABTS ([1]; 46.0µM): 69.4%; Relative Free Radical Scavenging Activity(%) on ABTS ([1]; 92.5µM): 99.9%; Relative Free Radical Scavenging Activity(%) on ABTS ([1]; 925µM): 100% |
| CCOC(=O)NNC(=O)c1ccc[n+](CC(=O)c2cccs2)c1 [Compound 54, 1-(2-thien-2'-yl-2-oxoethyl)-3-(ethoxycarbonyl hydrazinocarbonyl) pyridinium bromide] | superior | – | – |
| CS(=O)(=O)NNC(=O)c1ccc[n+](CC(=O)c2ccc(Cl)s2)c1.[Br-] [Compound 55, 1-(2-(5-chlorothien-2-yl)-2-oxoethyl)-3-(methanesulfonyl hydrazinocarbonyl) pyridinium bromide] | superior | – | – |
| Cc1ccc(C(=O)C[n+]2cccc(C(=O)NNC(=O)c3ccc[n+](CC(=O)c4ccc(C)s4)c3)c2)s1 [Compound 58, N, N'-bis [3-carbonyl-1-(2-(5-methylthien-2-yl)-2-oxoethyl)pyridinium] hydrazine dichloride] | superior | significantly much higher | – |

— EP1304101A1, “Composition and method for use of pyridinium derivatives in cosmetic and therapeutic applications” (Torrent Pharmaceuticals Ltd, priority 2001, dated 2003)
